Test: Example 5: change in humidity of cannabis plant matter after disinfection
Details: H2O2. Two 10 minute pulses, with UV Irradiation

OO [hydrogen peroxide]
Change in Humidity (Batch 4, 1 Hz for 10 seconds every 30 seconds): −2.25 percent by weight | Change in Humidity (Batch 5, 1 Hz for 5 seconds every 10 seconds): −2.36 percent by weight

Source: patent publication US20240307575A1, “METHODS FOR […] MATTER” (priority 2021, published 2024)
